# Source: the supplement of paper PMC3334620
# Whole data set: some 33,000 sequences, median “E-score (-0.5 to 0.5)” near -0.0014, cut for the highest 2% near 0.25. The list shows a part of the results.
# Molecular target: T1, Cad1 (UniProt P24813)
# T1 sequence: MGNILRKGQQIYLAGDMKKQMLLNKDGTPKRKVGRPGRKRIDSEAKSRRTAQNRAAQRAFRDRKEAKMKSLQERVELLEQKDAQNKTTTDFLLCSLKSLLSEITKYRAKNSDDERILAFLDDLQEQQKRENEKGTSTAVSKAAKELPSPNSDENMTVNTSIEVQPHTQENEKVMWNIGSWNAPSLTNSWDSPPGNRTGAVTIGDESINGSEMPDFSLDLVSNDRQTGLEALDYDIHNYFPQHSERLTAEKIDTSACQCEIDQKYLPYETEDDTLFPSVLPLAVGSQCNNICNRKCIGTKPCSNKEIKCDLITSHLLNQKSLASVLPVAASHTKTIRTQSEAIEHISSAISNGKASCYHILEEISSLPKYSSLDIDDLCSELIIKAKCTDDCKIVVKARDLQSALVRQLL
# Assay: PBM E-score (8-mer binding enrichment) (E-score (-0.5 to 0.5)); higher = stronger / more preferred TF binding
# Conditions: protein concentration: 100 nM; construct: GST-full length
# In short: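 Universal all-10-mer Agilent arrays, double-stranded by primer extension on fresh or once-stripped slides, were probed with about 100-200 nM GST-tagged yeast transcription factors made by PURExpress. Fluorescent anti-GST detected bound protein, and masliner normalised the scans. E-scores from the Universal PBM Analysis Suite were given to each ungapped eight-base word pooled with its reverse complement.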
row,Sequence,PBM E-score
1,GAATCTTA,0.0927
2,GTCTTACA,-0.108
3,ACAGCTTC,0.0271
4,GTGGCTGA,-0.105
5,GTAGGGAA,0.0374
6,ACCTGCGA,-0.203
7,GCAGAACC,-0.0185
8,CAAATTCG,0.118
9,TCAAAAGA,-0.0817
10,GCCGGTAA,0.0907
11,CATCTCGA,0.0431
12,CCGGCCTC,-0.158
13,ATAGTTCC,0.00211
14,AACTAACT,-0.0923
15,GTAGTGCA,0.0845
16,ACACGACC,-0.00841
17,AGACTTGG,-0.248
18,CCATCACG,0.054
19,GGCATCAA,-0.135
20,CAAATAGG,0.0602
21,CTGCTCAC,-0.0643
22,GAACTGTA,0.0769
23,CTGTCAAC,0.00496
24,GACGACCA,-0.0746
25,ACAACATA,0.23

row,Sequence,PBM E-score
1,AATCAGCA,0.258
2,CTGATGGC,-0.0751
3,GTATTCTA,0.138
4,ATTGTTAG,0.0937
5,AATTCGCG,0.192
6,AGGATAAA,0.207
7,ACCAACGC,-0.00258
8,AGGAAACA,0.141
9,CCTTCTGC,-0.16
10,AATTTGTA,0.196
11,TAGCTCGA,0.0489
12,GCCGTAGA,0.19
13,GGTAAGTA,0.0365
14,AAAAGCAA,0.127
15,ATCCCGAC,0.0376
16,ATTGGTAG,0.0517
17,AGGGGCAG,-0.197
18,ACAAGACA,0.0654
19,ACCGATAC,0.00087
20,GAATCGCA,-0.0784
21,CGTAGCGC,-0.0945
22,GCTTCTTA,0.043
23,CGTAGTAG,0.0011
24,ATACGGAG,-0.12
25,ATTTCGAG,0.181

row,Sequence,PBM E-score
1,AATAGCAA,0.199
2,ATGCGTTA,0.125
3,ATGCGAAC,-0.0513
4,GGTCTTTA,-0.0378
5,AACCTGCT,-0.113
6,CCGCGCTC,0.097
7,CATTTACG,-0.141
8,AATCGAGA,0.0959
9,ATCGTTAG,0.108
10,ATGCCTAC,-0.0355
11,GTTTGTCA,0.317
12,AGAATTAG,0.00824
13,ATAATCTC,0.0934
14,TGAAGCAA,0.0525
15,CCTGACTA,0.351
16,AGAGTTAA,-0.00997
17,CGGTCGGC,-0.204
18,AACGAGGA,0.0212
19,GAACCCGC,-0.191
20,GGAATTCC,-0.00382
21,AATAGTGG,0.134
22,TCTAAGCA,0.127
23,AAAAATCT,0.0732
24,GCAACCGA,0.175
25,GGATGTGA,-0.0236

# Taken from above.
# GTTTGTCA – PBM E-score: 0.317
# ATCGTTAG – PBM E-score: 0.108

# Rewritten with bars between the fields: part of the list above
row | Sequence | PBM E-score
10 | ATGCCTAC | -0.0355
11 | GTTTGTCA | 0.317
12 | AGAATTAG | 0.00824
13 | ATAATCTC | 0.0934

# Next records follow:

row,Sequence,PBM E-score
1,CGAAGTTC,0.0863
2,AACCCGTG,-0.317
3,AACTTGCC,-0.118
4,CACCAATG,-0.0866
5,AGAAAAGA,-0.0414
6,GAACTCGA,0.0968
7,TCTACGCA,0.0654
8,AGAGTCGG,-0.242
9,CGTTTAAA,0.0598
10,GAAGACAC,-0.131
11,CCGATGGA,-0.0825
12,GACCTCGC,-0.175
13,CAGTTTAC,0.0325
14,AGTTTAGC,0.0227
15,AATGCACG,-0.0908
16,AGCCACAA,0.0357
17,ATAATCCC,-0.033
18,AAGTCACG,0.0108
19,CAAAATCC,0.0455
20,ATAACCAA,0.179
21,GTTCTTAA,0.109
22,CTTTCTGC,-0.0256
23,GCAGTCCC,-0.187
24,GGGGTGAA,-0.22
25,CTTAATCC,-0.0139

row,Sequence,PBM E-score
1,CATCGGTA,-0.0604
2,ATTGGTGG,0.0593
3,ACGTACAT,0.135
4,CCGTGAAG,-0.0979
5,GTCATAGA,0.024
6,ACCTGACT,0.156
7,AAACGGAT,0.243
8,GCACTTAA,0.115
9,GCCGAATA,0.0852
10,CACGCCTC,-0.0988
11,CCGAGGCA,-0.00745
12,ATTGCTCG,0.136
13,CCGTCTAC,-0.0134
14,CTTTCAAA,0.244
15,CATCATCC,0.0445
16,CCTAGTAA,-0.106
17,AATGTACA,0.0976
18,CCATGCGC,-0.00411
19,AATTGGAC,0.107
20,ACGCAGTC,-0.189
21,GGCTACGA,-0.0271
22,AGGACCCA,-0.22
23,CTCGACCA,-0.186
24,AACTATAG,-0.096
25,CAGAATCA,0.172

row,Sequence,PBM E-score
1,GGTGCACC,-0.012
2,TCCGCGAA,0.202
3,AGAACTGC,-0.0232
4,GACAGTTA,0.00534
5,AGATCACG,0.0803
6,AAATAAAG,-0.0232
7,AGCACAGG,-0.0131
8,CGACTAAA,-0.0897
9,TCACTAAA,0.138
10,ATCACGAA,0.064
11,GAGAGTCC,-0.248
12,CTTTATGA,-0.0403
13,ACCTCGAT,-0.0127
14,AAGACAGG,-0.0424
15,AGTGTCCA,0.0266
16,CGACGCCA,-0.192
17,AATTGTAG,0.0815
18,CCGCGAAG,0.12
19,AAAAGCGG,-0.0296
20,CTCCAAAC,-0.0321
21,CTAGTTCC,0.138
22,GGTGTGCA,-0.162
23,TACTCCTA,-0.0421
24,GTGAACCA,0.188
25,CACGTTTA,-0.0503

# Looked up one by one from above (three):
row,Sequence,PBM E-score
1,GGTGCACC,-0.012
14,AAGACAGG,-0.0424
3,AGAACTGC,-0.0232

# Next records.

row,Sequence,PBM E-score
1,CTCACCTA,0.0145
2,AGTAGGAA,-0.239
3,CGGGGGAA,-0.236
4,AGTAGGTC,-0.138
5,AGGTCCCA,-0.17
6,CCAGGTGC,-0.133
7,AGCTTAGG,-0.0203
8,CCGGTCCA,-0.0927
9,ACCTAGAC,-0.0525
10,CAGGTCCG,-0.0966
11,AGGTGCAT,-0.0489
12,CAGCTGTC,0.253
13,GCTACCAC,-0.0847
14,AACACCGA,-0.167
15,AAGGGGTA,-0.37
16,TGCGTGAA,0.0712
17,CGAAACAG,0.137
18,AACTCTCC,-0.129
19,AGACATGC,-0.26
20,CGGCGCCG,0.242
21,TAAACTCA,0.104
22,CGAGTCAA,0.0827
